# Source: PMC7819943, “Rice protein-binding microarrays: a tool to detect cis-acting elements near promoter regions in rice”
# The other results are listed elsewhere or left out.
# Biological target: T1, OsSMF1 (Oryza sativa, UniProt Q6ZLB0 1-436)
# T1 sequence: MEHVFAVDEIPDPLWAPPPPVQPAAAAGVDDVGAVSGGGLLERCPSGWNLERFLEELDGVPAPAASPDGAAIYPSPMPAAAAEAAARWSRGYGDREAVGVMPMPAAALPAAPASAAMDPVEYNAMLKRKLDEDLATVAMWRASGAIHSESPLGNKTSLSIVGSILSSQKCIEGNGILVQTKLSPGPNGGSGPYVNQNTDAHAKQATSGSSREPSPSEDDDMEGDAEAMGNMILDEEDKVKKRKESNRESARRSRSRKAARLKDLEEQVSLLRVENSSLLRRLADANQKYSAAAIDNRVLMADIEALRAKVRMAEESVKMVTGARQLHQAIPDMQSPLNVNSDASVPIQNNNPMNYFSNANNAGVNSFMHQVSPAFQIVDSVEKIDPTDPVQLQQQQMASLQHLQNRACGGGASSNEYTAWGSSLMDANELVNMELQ
# Experiment: protein-binding microarray (RPBM); PBS, 2% BSA, 51.3 ng/ul salmon testes DNA, 50 uM zinc acetate, 200 nM TF, 25 C, 1 h; high values mean tight binding
# Details: protein: recombinant; tags: N-terminal polyhistidine and DsRed monomer fusion (pET32a); chain copies: 2; label: CyDye5-dUTP incorporated in the synthesized complementary strand; 3' TTTTT single-stranded linker to array surface; dsDNA, one strand shown
# Summary of the method: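 Binding signal is defined as the fluorescence intensity of each feature in arbitrary units, read on an Axon 4000B scanner. Transcription factors with N-terminal polyhistidine and DsRed fusions came from E. coli BL21-CodonPlus and were purified on Ni–NTA. They were incubated at 200 nM for 1 h at 25 °C on a custom Agilent array that had been made double-stranded with Cy5-dUTP, with 50 µM zinc acetate present, and the array was washed.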
row,Sequence,binding signal
1,TTAGTTTTCCGATGGCTATGTATGCATGCGCACGCGGAGCCGGAGTCACCTAGTGCAG,3260 fluorescence intensity (a.u.)
2,TATGGGAGAAAGGGAGCTGCCAATTGCCATGCTATTTGTGCGGAGTCACCTAGTGCAG,3340 fluorescence intensity (a.u.)
3,CTCCCACACCCTCCCGCTCAGCTCCGCCGCGGCACCGCCACGGAGTCACCTAGTGCAG,3940 fluorescence intensity (a.u.)
4,GTTGTGTTTTGGAGACTGTGTCGCTGTCCTAAACGACTTCCGGAGTCACCTAGTGCAG,3660 fluorescence intensity (a.u.)
5,CGCAATCCGCCGCTTGCCTTCGCCGCCGCCCGCGCTGAATCGGAGTCACCTAGTGCAG,3450 fluorescence intensity (a.u.)
6,AACTCTCTCCGCTCGCACGCCGTTCCATATATAAGACCACCGGAGTCACCTAGTGCAG,3690 fluorescence intensity (a.u.)
7,GAGGATAGGGATGTCGTCAGCGTTGGAGACAATAGTCTTGCGGAGTCACCTAGTGCAG,5720 fluorescence intensity (a.u.)
8,CTCTTCCTCTCCACTTCGGTGCAGGATCTGGAGCAGTGTTCGGAGTCACCTAGTGCAG,3300 fluorescence intensity (a.u.)
9,TGCCAGACTGACAGTCACTTGTACACGCAGTATAATATCCCGGAGTCACCTAGTGCAG,3160 fluorescence intensity (a.u.)
10,ATATTTTATAACATTTTCAAATAAACCAATTTCTACCTTTCGGAGTCACCTAGTGCAG,17900 fluorescence intensity (a.u.)
11,GTGGGCCATCTGACAGTGCATACAGGAACTTTCCCCTTCTCGGAGTCACCTAGTGCAG,4930 fluorescence intensity (a.u.)
12,CGATGTGAAGCAGATGTGTCAAATGGGCACCCTTGCGGCCCGGAGTCACCTAGTGCAG,3370 fluorescence intensity (a.u.)
13,CAACAGATTAATGACATGTCAACAGCTGCATGCTCTAGCTCGGAGTCACCTAGTGCAG,5080 fluorescence intensity (a.u.)
14,AACTTTCATAAGCAAAATATCAAACGACTTATAATTTTATCGGAGTCACCTAGTGCAG,26300 fluorescence intensity (a.u.)
15,AATTTCCTCACATCGACCGTTGACTCATCCACTTCACTGCCGGAGTCACCTAGTGCAG,5700 fluorescence intensity (a.u.)
16,AATCCTACTGCCTCCGTCCCAAAATATAATAGCTTTTAGCCGGAGTCACCTAGTGCAG,3530 fluorescence intensity (a.u.)
17,GGAGTGTCTCTATTGCCGCTGATGGGTTGTATGACGCTCGCGGAGTCACCTAGTGCAG,4590 fluorescence intensity (a.u.)
18,CCATGTTGAAATTAATGGATCGATGTTACGGTAGGATTAGCGGAGTCACCTAGTGCAG,3190 fluorescence intensity (a.u.)
19,TAGCGCCACATCACTTGATAAGATAGGAATTTATTCTTGCCGGAGTCACCTAGTGCAG,6250 fluorescence intensity (a.u.)
20,ATTCCTTAAAATACTCTCAAGCTGCCACGTGGCGCTCTAACGGAGTCACCTAGTGCAG,31300 fluorescence intensity (a.u.)
21,GAATAAATATCTCTATTCCTGCGTCATCCCCATCTCTCGCCGGAGTCACCTAGTGCAG,6550 fluorescence intensity (a.u.)

# Some of the entries above in another layout.
row | Sequence | binding signal
20 | ATTCCTTAAAATACTCTCAAGCTGCCACGTGGCGCTCTAACGGAGTCACCTAGTGCAG | 31300 fluorescence intensity (a.u.)
21 | GAATAAATATCTCTATTCCTGCGTCATCCCCATCTCTCGCCGGAGTCACCTAGTGCAG | 6550 fluorescence intensity (a.u.)

# Next records follow.

row,Sequence,binding signal
1,ATTCCCCGCCTTGTTTCCCTCTTTCCACGTCGCGAGAGGCCGGAGTCACCTAGTGCAG,3600 fluorescence intensity (a.u.)
2,GTGCAAGCTAGCTTCTCGCTCTCGCGCCTATAAATTGGGCCGGAGTCACCTAGTGCAG,3450 fluorescence intensity (a.u.)
3,AGGGTGTGTACTTCGGGAGCAGTATGAAGTATGTGACGTGCGGAGTCACCTAGTGCAG,31400 fluorescence intensity (a.u.)
4,GATGTCGTATTACGTAGACCCTCGTTCCAACGTACCCCAACGGAGTCACCTAGTGCAG,4210 fluorescence intensity (a.u.)
5,GCTCGCGTAATCACGTGTCCGCCTGGTGTATGTCCCTCTCCGGAGTCACCTAGTGCAG,4700 fluorescence intensity (a.u.)
6,TATGGTGAGTCTCTTCTCGTGTTCCTTTTGACTTGTAGATCGGAGTCACCTAGTGCAG,3660 fluorescence intensity (a.u.)
7,GATGCGTGGCGTGGCGTGGCCGCGTGACAGTGCGAGTGATCGGAGTCACCTAGTGCAG,6320 fluorescence intensity (a.u.)
8,AACCTCCCCAACGGCAGGCTCATCATACGTGCGTGCTGGACGGAGTCACCTAGTGCAG,3810 fluorescence intensity (a.u.)
9,CTCGTTTTGCGTGAAACACTTAATCTTCGTCTTCAGGACACGGAGTCACCTAGTGCAG,3280 fluorescence intensity (a.u.)
10,TTCTCACATCACGTCACTAACCTAACAACCCTATGACGTGCGGAGTCACCTAGTGCAG,3840 fluorescence intensity (a.u.)
11,GAGTCGTTATCTGCATTGATGTGTCTCCTGACTCCTGAGACGGAGTCACCTAGTGCAG,3840 fluorescence intensity (a.u.)
12,AGTTAAACTTTCAATTTTGACGTGGAACTAAACACAGCCACGGAGTCACCTAGTGCAG,6800 fluorescence intensity (a.u.)
13,GCCCTTCACCCTGGCGAACAGCGTCACGGCTCGCCGGACGCGGAGTCACCTAGTGCAG,4140 fluorescence intensity (a.u.)
14,TTACTCATATGAGATGGTGATGGGTCGTGGCGTGGGTCCACGGAGTCACCTAGTGCAG,3310 fluorescence intensity (a.u.)
15,CGAGAGGCTTGGGAAGAGATGAGGTTGGCACGTGTGAACGCGGAGTCACCTAGTGCAG,4250 fluorescence intensity (a.u.)
16,CGCCGTCGCCGTCGCGCTCATCCACGTCACCATGGACGAACGGAGTCACCTAGTGCAG,25300 fluorescence intensity (a.u.)
17,TGAGCGGCTATCCTCCCACGATAGCCACGTGGCCGCAATCCGGAGTCACCTAGTGCAG,12500 fluorescence intensity (a.u.)
18,TCTTTGTGTTTCCATCCAGTGAACCCCACCTCATCATTCTCGGAGTCACCTAGTGCAG,3810 fluorescence intensity (a.u.)
19,ATACCATTAGTATATATATTATGCACGTCAGCTTTTAGCTCGGAGTCACCTAGTGCAG,11900 fluorescence intensity (a.u.)
20,TTGTTGTGTATGTTTCCAATCGGTTCGTTTGCAACGCATACGGAGTCACCTAGTGCAG,3140 fluorescence intensity (a.u.)
21,CCACACATCTCTCTTCCACCTAGTTTACTTCGACCTGGGCCGGAGTCACCTAGTGCAG,3150 fluorescence intensity (a.u.)
